PubChem BioAssay AID1259254, NCATS | 2017

Test: 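Genome-wide screen for genes that prevent DNA re-replication in cancer cells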 (primary screen)
Cells: human HCT116 colorectal cancer cells
Reagents: single siRNA against human genes
Time to read-out: 3 days
Measurement: 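Nuclei stained with Hoechst and imaged; cell-cycle phase assigned by DNA content; G2 share scaled per plate, non-targeting siRNA 0%, GMNN siRNA 100%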
Reading the numbers: G2 robust z-score and G2 cells, % of GMNN control: higher = more G2 cells, more excess DNA replication
Rule for the call: 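An siRNA counts as active if its G2 robust z-score lies at least 5 MADs above the screen median; here such calls match roughly 38% of GMNN control or more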
The whole screen tested about 59,000 reagents; shown is a part drawn at random. About 1,550 of them (2.6%) count as active. 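G2 share is only a proxy for re-replication; each gene was hit by three separate siRNAs, and active genes were retested.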 The numbers tell different reagents against one gene apart. Further read-outs or replicates are left out here. Reagent sequences are not shown. The record does not give: the amount of reagent.

After knock-down of ZNF764 #1, the screen gave G2 robust z-score -0.564; G2 cells, % of GMNN control -1; inactive. ZNF764 #2 scored G2 robust z-score -0.286; G2 cells, % of GMNN control 0.957; inactive. ZNF764 #3 gave G2 robust z-score 1.9; G2 cells, % of GMNN control 16.3; inactive. Knock-down of CLIC3 #1 gave: G2 robust z-score -0.338; G2 cells, % of GMNN control 0.589; inactive. Depletion of CLIC3 #2 came out at: G2 robust z-score -0.573; G2 cells, % of GMNN control -1.07; inactive. CLIC3 #3 gave G2 robust z-score -0.483; G2 cells, % of GMNN control -0.428; inactive.

For GFI1 #1 the deposit lists G2 robust z-score -0.628; G2 cells, % of GMNN control -1.45; inactive. Knock-down of GFI1 #2 gave: G2 robust z-score -0.0667; G2 cells, % of GMNN control 2.5; inactive. After knock-down of GFI1 #3, the screen gave G2 robust z-score -0.414; G2 cells, % of GMNN control 0.0526; inactive.

Part of the list above in another layout.
{"gene knocked down":"CLIC3","reagent no.":3,"G2 robust z-score":-0.483,"G2 cells, % of GMNN control":-0.428,"call":"inactive"}
{"gene knocked down":"GFI1","reagent no.":1,"G2 robust z-score":-0.628,"G2 cells, % of GMNN control":-1.45,"call":"inactive"}
{"gene knocked down":"GFI1","reagent no.":2,"G2 robust z-score":-0.0667,"G2 cells, % of GMNN control":2.5,"call":"inactive"}

The results go on.
Silencing of LMNTD2 #1 came out at: G2 robust z-score 3.47; G2 cells, % of GMNN control 27.4; inactive. LMNTD2 #2 showed G2 robust z-score 0.12; G2 cells, % of GMNN control 3.81; inactive. Depletion of LMNTD2 #3 came out at: G2 robust z-score 0.696; G2 cells, % of GMNN control 7.87; inactive. LSM10 #1 gave G2 robust z-score 0.846; G2 cells, % of GMNN control 8.92; inactive. With knock-down of LSM10 #2 the results were G2 robust z-score 0.609; G2 cells, % of GMNN control 7.25; inactive. LSM10 #3 gave G2 robust z-score 0.45; G2 cells, % of GMNN control 6.13; inactive.

Against PEX7 #1 the deposit lists G2 robust z-score -0.313; G2 cells, % of GMNN control 0.762; inactive. For PEX7 #2, the values are G2 robust z-score 4.09; G2 cells, % of GMNN control 31.7; inactive. PEX7 #3 scored G2 robust z-score -0.459; G2 cells, % of GMNN control -0.261; inactive.
